# Data taken from paper PMC6925144, “A prospective compound screening contest identified broader inhibitors for Sirtuin 1” (Scientific Reports, 2019).
# Amino acid sequences for entries named in this document (tags omitted). Residues count along the entry.
# UniProt Q96EB6, 2-747 limits assumed: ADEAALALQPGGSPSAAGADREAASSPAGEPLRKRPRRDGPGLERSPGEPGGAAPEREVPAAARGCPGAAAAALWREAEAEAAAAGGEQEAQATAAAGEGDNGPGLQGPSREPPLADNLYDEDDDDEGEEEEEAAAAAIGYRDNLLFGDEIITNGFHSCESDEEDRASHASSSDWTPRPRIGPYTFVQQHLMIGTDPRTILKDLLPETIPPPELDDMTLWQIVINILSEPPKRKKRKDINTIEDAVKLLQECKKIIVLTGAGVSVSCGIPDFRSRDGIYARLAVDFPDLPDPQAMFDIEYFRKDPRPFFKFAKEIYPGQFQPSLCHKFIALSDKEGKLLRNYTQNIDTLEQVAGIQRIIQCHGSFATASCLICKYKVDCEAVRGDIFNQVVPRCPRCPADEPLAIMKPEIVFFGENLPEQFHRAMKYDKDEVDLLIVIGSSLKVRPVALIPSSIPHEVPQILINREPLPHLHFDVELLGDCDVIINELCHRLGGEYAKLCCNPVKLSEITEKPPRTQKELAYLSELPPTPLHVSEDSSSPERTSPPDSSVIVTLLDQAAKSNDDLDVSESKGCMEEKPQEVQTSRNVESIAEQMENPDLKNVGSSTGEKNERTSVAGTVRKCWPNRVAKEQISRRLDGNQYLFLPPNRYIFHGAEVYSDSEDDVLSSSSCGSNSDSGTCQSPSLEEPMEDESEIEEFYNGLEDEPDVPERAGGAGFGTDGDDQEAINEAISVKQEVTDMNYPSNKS
# Over roughly 3,200 compounds, “TSA(with NAD+) / Primary screening (TSA) / delta Tm (K)” has its median near -0.04; the highest 2% begin near 0.37. The list shows a part of the results.
# Molecular target: NAD-dependent deacetylase Sirtuin 1 (human, UniProt Q96EB6)
# Assay: primary screen, delta tm
# Set-up: single well (n = 1, as 'the same TSA')
# Settings: 10 µM
row,Structure (SMILES),TSA(with NAD+) / Primary screening (TSA) / delta Tm (K)
1,CCOC(=O)c1sc2nc(C)nc(N3CCN(c4ccc(O)cc4)CC3)c2c1C,0.06
2,Cc1nccn1-c1ncnc2c1cnn2-c1ccccc1,0.09
3,COc1ccc(C(=O)C2=C(O)C(=O)N(CCCN3CCOCC3)C2c2ccco2)cc1OC (stereo not drawn),-0.03
4,Cc1cccc2[nH]c(CCC(=O)NCC(=O)Nc3cccnc3)nc12,-0.01
5,CC(OC(=O)c1ccc(-c2ccc(O)cc2)cc1)C(=O)NCc1ccccc1 (stereo not drawn),-0.04
6,Cc1noc(C(C)N2CCN(Cc3cccc(C(N)=O)c3)CC2)n1 (stereo not drawn),-0.03
7,Cc1nc2ccccc2c(=O)n1CC(=O)O,-0.03
8,COc1ccc(C2C(C(=O)/C=C/c3ccco3)=C(O)C(=O)N2CCCN2CCOCC2)cc1 (stereo not drawn),-0.14
9,CC(NC(=O)c1ccccc1NC(=O)COC(=O)C12CC3CC(CC(O)(C3)C1)C2)c1ccccc1 (stereo not drawn),0.05
10,Cc1nc(S)sc1CC(=O)NCC1CCCS1(=O)=O (stereo not drawn),-0.01
11,CC(OC(=O)CNC(=O)C12CC3CC(CC(C3)C1)C2)C(=O)Nc1ccccc1-c1ccccc1 (stereo not drawn),-0.01
12,CC12CCC(C/C1=N/N=C1/CC3CCC1(C)C3(C)C)C2(C)C,-0.29
13,O=C(Nc1ccccc1Oc1ccccc1)c1cccc([N+](=O)[O-])c1,-0.03
14,Cc1csc2c(NC3(CO)CCCC3)ncnc12,-0.06
15,CCOc1ccc(C2C(C(=O)c3ccc(OC)cc3)=C(O)C(=O)N2CCCN2CCOCC2)cc1 (stereo not drawn),-0.05
16,Cc1ccc(N(C)S(=O)(=O)c2cccc(C(=O)Nc3sccc3C(N)=O)c2)cc1,0.26
17,COc1cccc(NC(=O)COc2ccc(C(=O)OCC(=O)NCCC3=CCCCC3)cc2)c1,-0.14
18,COc1ccc(C(N)=O)cc1NC(=O)c1ccccc1-c1nc(C(C)C)no1,-0.23
19,O=C1COc2ccc(C(=O)CSc3nc(-c4ccccc4)c(-c4ccccc4)o3)cc2N1,0.01
20,O=c1c2ccncc2ncn1CC(O)c1cccc(F)c1 (stereo not drawn),-0.11
21,N#Cc1ccc(CN2CCN(CC(=O)Nc3cc(Cl)ccc3-n3cncn3)CC2)cc1,0.08
22,Cc1ccc(CN(CCc2ccccc2)C(=O)Cc2c(C)nc(-c3ccccn3)[nH]c2=O)s1,0.12
23,C=Cn1c(N)c(C(=O)OCC)sc1=S,-0.21

row,Structure (SMILES),TSA(with NAD+) / Primary screening (TSA) / delta Tm (K)
1,O=C(CCc1c[nH]c2ccccc12)N1CCCC(c2nc3ccccc3[nH]2)C1 (stereo not drawn),0.05
2,Cc1ccc(N(C)S(=O)(=O)c2cccc(C(=O)OCc3cc(=O)oc4c(C)c(C)ccc34)c2)cc1,-0.11
3,O=C(C1=C(O)C(=O)N(CCN2CCOCC2)C1c1ccco1)c1ccco1 (stereo not drawn),-0.11
4,COc1ccc(-n2ccc(C(=O)Nc3ccc4nc[nH]c(=O)c4c3)n2)cc1,-0.05
5,C=CCNC(=O)c1ccc(NC(=O)N2CCC(C(=O)Nc3ccccc3OC)CC2)cc1,-0.03
6,CC(C)Oc1ccc(S(=O)(=O)N2CCOCC2)cc1NC(=O)C1=COCCO1,-0.06
7,NC(=O)c1ccccc1OCc1cccc(COc2ccccc2C(N)=O)c1,-0.05
8,CCOc1ccc(S(=O)(=O)N(CC(=O)NC23CC4CC(CC(C4)C2)C3)Cc2ccccc2)cc1,-0.01
9,Cc1ccc(/C=C/S(=O)(=O)NCC(=O)Nc2ccccc2Cc2ccccc2)cc1,-0.09
10,COC(=O)c1sc2cccc(F)c2c1CNC(=O)Cn1cnnn1,-0.01
11,CC(Oc1ccc(C#N)cc1)C(=O)NC(C)c1ccc2ccccc2c1 (stereo not drawn),-0.02
12,COc1ccc(C(=O)C(C)OC(=O)c2c(C)noc2C)cc1 (stereo not drawn),-0.04
13,CC(=O)C(C)N (stereo not drawn),-0.14
14,Cc1ccc(NC=C2C(=O)NC(=S)NC2=O)cc1,-0.19
15,COC(=O)c1cc2c(C)nn(-c3ccc(F)cc3)c2s1,0.07
16,COc1ncnc2c1CN(C(C)C(=O)N1CCc3ccccc31)CC2 (stereo not drawn),0.01
17,CCOc1nc2cc(C(=O)OCCC3CCCCN3C(=O)c3cccn3C)ccc2[nH]1 (stereo not drawn),-0.09
18,Cc1ccc(C)c(CSCc2nc3ccsc3c(=O)[nH]2)c1,-0.23
19,O=C(O)c1c2ccccc2cc2ccccc12,-0.11
20,Cc1nc2ccc(C(=O)NC(Cc3ccccc3)C(N)=O)cc2nc1C (stereo not drawn),-0.14
21,O=C(Nc1ccc(N2CCCCC2)cc1)c1cc(Cl)nc2ccccc12,0.01
22,O=C(Nc1cccc(S(=O)(=O)NCc2ccco2)c1)c1ccccc1OCc1ccccc1,0.11
23,Cc1cccc([N+](=O)[O-])c1N,0.05

row,Structure (SMILES),TSA(with NAD+) / Primary screening (TSA) / delta Tm (K)
1,COc1ccc(N(C)S(=O)(=O)c2cccc(C(=O)Nc3cccc4ccccc34)c2)cc1,-0.09
2,CCCc1noc(CSc2nccn2Cc2ccccn2)n1,-0.04
3,Cc1cc(C)c(CCNC(=O)NC2CCCNC2=O)c(C)c1 (stereo not drawn),-0.06
4,CC(C)Oc1ccc(-c2nc(C(=O)OC3CCCN(Cc4ncccn4)C3)cs2)cc1 (stereo not drawn),0.03
5,COc1cc(NC(=O)c2cccs2)c(C(=O)OCC(=O)NC23CC4CC(CC(C4)C2)C3)cc1OC,0.03
6,COc1ccc(C2CNC(c3ccccc3)c3[nH]c4ccccc4c32)cc1 (stereo not drawn),-0.21
7,COc1ccc(/C=C/C(=O)NCCn2c(C)nc3ccccc32)cc1,-0.21
8,O=C(Nc1ccc2[nH]c(=O)[nH]c2c1)C1c2ccccc2Oc2ccccc21,0.07
9,Cc1nc(CSc2ccccc2C(=O)NCc2ccc(Cn3ccnc3)cc2)no1,-0.05
10,CCCOc1ccc(C(=O)C2=C(O)C(=O)N(CCN3CCOCC3)C2c2ccccn2)cc1 (stereo not drawn),-0.02
11,Cc1ccc(-c2nn(-c3ccccc3)cc2C=C2C(=O)NC(=S)NC2=O)o1,0.18
12,COc1ccc(Br)cc1C=C1C(=O)c2ccccc2C1=O,-0.13
13,Cc1c(C=C2C(=O)NC(=S)NC2=O)c2ccccn2c1C(=O)c1cccc([N+](=O)[O-])c1,-0.03
14,O=C(O)CCc1ccc(S(=O)(=O)Nc2ccc3[nH]c(-c4ccc(F)cc4)nc3c2)cc1,0.01
15,Cc1ccc(-c2csc3ncn(CC(=O)NCC(=O)Nc4ccc(F)c(F)c4F)c(=O)c23)s1,0.01
16,COc1cccc(/C=N/c2ccc(C)cc2)c1OC,-0.01
17,O=C(C1CCCc2ccccc21)N1CCCC(c2nc3ccccc3o2)C1 (stereo not drawn),-0.08
18,O=c1onc(-c2cnccn2)n1Cc1nc2cc([N+](=O)[O-])ccc2o1,0.02
19,Cc1ccnc(NC(=O)C2CCN(c3ncnc4scc(-c5ccc(F)cc5)c34)CC2)c1,-0.05
20,C=CCn1c(SCC(=O)Nc2ccc(C(N)=O)cc2)nnc1-c1ccncc1,0.07
21,CCC(C)(C)C(=O)N1CCc2cnccc21,-0.01
22,Cc1cc(C(=O)COC(=O)C23CC4CC(CC(Cl)(C4)C2)C3)c(C)n1Cc1ccc2c(c1)OCO2,-0.03
23,COC(OC)C(C)N (stereo not drawn),0.11

# Grouped by structure, the entries above containing a halogen.
row,Structure (SMILES),TSA(with NAD+) / Primary screening (TSA) / delta Tm (K)
20,O=c1c2ccncc2ncn1CC(O)c1cccc(F)c1 (stereo not drawn),-0.11
21,N#Cc1ccc(CN2CCN(CC(=O)Nc3cc(Cl)ccc3-n3cncn3)CC2)cc1,0.08
10,COC(=O)c1sc2cccc(F)c2c1CNC(=O)Cn1cnnn1,-0.01
15,COC(=O)c1cc2c(C)nn(-c3ccc(F)cc3)c2s1,0.07
21,O=C(Nc1ccc(N2CCCCC2)cc1)c1cc(Cl)nc2ccccc12,0.01
12,COc1ccc(Br)cc1C=C1C(=O)c2ccccc2C1=O,-0.13
14,O=C(O)CCc1ccc(S(=O)(=O)Nc2ccc3[nH]c(-c4ccc(F)cc4)nc3c2)cc1,0.01
15,Cc1ccc(-c2csc3ncn(CC(=O)NCC(=O)Nc4ccc(F)c(F)c4F)c(=O)c23)s1,0.01
19,Cc1ccnc(NC(=O)C2CCN(c3ncnc4scc(-c5ccc(F)cc5)c34)CC2)c1,-0.05
22,Cc1cc(C(=O)COC(=O)C23CC4CC(CC(Cl)(C4)C2)C3)c(C)n1Cc1ccc2c(c1)OCO2,-0.03

# Next part.

row,Structure (SMILES),TSA(with NAD+) / Primary screening (TSA) / delta Tm (K)
1,Cc1c(C)n(-c2ccc(Cl)cc2)c2ncnc(N)c12,-0.11
2,COc1cc(CN(C)C(=O)c2ccc(CNC(N)=O)cc2)ccc1OCc1ccccc1,-0.03
3,Cc1nc2c3ccccc3nc(SCc3nc(N)nc(Nc4ccc(F)cc4)n3)n2n1,0.22
4,CC1CC1CN (stereo not drawn),-0.09
5,O=C(COc1ncnc2sc3c(c12)CCCC3)N1CCc2ccccc21,0.26
6,CC1(C)NC(=O)N(CC(=O)Nc2sc3c(c2-c2nc4ccccc4[nH]2)CCCC3)C1=O,0.37
7,Cc1ccc(N(C)S(=O)(=O)c2cccc(C(=O)Nc3cccc(C#N)c3)c2)cc1,0.28
8,CC1CCC/C(=N/NC(=O)c2ccc(Cn3nnc(-c4ccccc4)n3)cc2)C1 (stereo not drawn),0.05
9,Cc1ccc(N(C)S(=O)(=O)c2cccc(C(=O)OC3CCOC3=O)c2)cc1 (stereo not drawn),0.18
10,CNC(=O)COc1cc(F)ccc1F,0.01
11,Cc1cc(C(=O)COC(=O)C23CC4CC(CC(O)(C4)C2)C3)c(C)n1-c1cccc(S(=O)(=O)N2CCOCC2)c1,0.01
12,NC(=O)C1CCN(c2ncnc3c2c(-c2ccccc2)cn3-c2cccc(C(F)(F)F)c2)CC1,-0.02
13,CNC(=O)CCNc1ccc2nnc(C(F)(F)F)n2n1,0.08
14,CCOC(=O)/C=C/C(=O)OCC(=O)N1N=C2/C(=C\c3ccc(OC)cc3)CCCC2C1c1ccc(OC)cc1 (stereo not drawn),0.02
15,CSc1cccc(NC(=O)c2cccc(S(=O)(=O)N(C)c3ccc(C)cc3)c2)c1,0.19
16,N#Cc1ccc2[nH]c3c(c2c1)CCCC3,0.09
17,NC(=O)COC(=O)c1ccc(SCc2cn3ccccc3n2)cc1,-0.19
18,CC(NCc1ccncc1)c1ccccc1 (stereo not drawn),-0.13
19,CCC(N)COC (stereo not drawn),-0.11
20,COc1cc(C(C)=O)ccc1COc1ccc(C(=O)OC(C)C(=O)NC23CC4CC(CC(C4)C2)C3)cc1OC (stereo not drawn),0.09
21,Fc1cccc2[nH]c(CSc3nccn3Cc3ccccn3)nc12,-0.16

# In the list so far, 2 contain a CF3 group:
row,Structure (SMILES),TSA(with NAD+) / Primary screening (TSA) / delta Tm (K)
12,NC(=O)C1CCN(c2ncnc3c2c(-c2ccccc2)cn3-c2cccc(C(F)(F)F)c2)CC1,-0.02
13,CNC(=O)CCNc1ccc2nnc(C(F)(F)F)n2n1,0.08
